Test results taken from article PMC10719266.

The chains behind the UniProt entries cited, without tags or fusion partners.
UniProt P19474: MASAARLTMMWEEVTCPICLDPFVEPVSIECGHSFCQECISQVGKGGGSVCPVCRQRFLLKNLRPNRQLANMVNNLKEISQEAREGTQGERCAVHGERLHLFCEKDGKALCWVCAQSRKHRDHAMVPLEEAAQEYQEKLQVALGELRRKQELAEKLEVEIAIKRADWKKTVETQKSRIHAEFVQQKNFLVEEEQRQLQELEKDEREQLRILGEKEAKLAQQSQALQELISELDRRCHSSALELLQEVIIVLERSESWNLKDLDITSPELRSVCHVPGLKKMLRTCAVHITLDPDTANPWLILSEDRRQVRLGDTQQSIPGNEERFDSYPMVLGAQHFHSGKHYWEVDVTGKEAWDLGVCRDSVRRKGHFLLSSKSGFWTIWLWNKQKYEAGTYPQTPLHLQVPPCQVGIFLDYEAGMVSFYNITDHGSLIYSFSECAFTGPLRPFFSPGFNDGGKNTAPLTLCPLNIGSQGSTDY

Target: T1, Flag-tagged FOXD1 (human) (UniProt Q16676)
T1 sequence: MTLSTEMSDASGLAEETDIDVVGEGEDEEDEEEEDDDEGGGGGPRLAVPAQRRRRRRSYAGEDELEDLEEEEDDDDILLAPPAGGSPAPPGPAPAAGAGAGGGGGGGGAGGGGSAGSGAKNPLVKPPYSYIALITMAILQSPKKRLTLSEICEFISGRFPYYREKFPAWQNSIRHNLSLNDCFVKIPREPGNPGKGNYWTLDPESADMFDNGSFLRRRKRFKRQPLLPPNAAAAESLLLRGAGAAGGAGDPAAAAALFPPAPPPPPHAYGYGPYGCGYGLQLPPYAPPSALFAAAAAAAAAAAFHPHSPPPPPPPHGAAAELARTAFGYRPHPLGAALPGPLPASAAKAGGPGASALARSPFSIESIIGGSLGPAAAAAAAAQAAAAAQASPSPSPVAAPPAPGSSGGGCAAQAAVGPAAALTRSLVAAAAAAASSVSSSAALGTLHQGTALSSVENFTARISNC
Test: affinity purification with mass spectrometry; Flag-tagged FOXD1 expressed in HEK293T cells in the presence of ubiquitin; immunoprecipitation, then nano-LC-MS/MS (LTQ-Orbitrap Velos)

TRIM21 (from UniProt P19474 1-475)
binding: binds

No constants are given. Whether binding was seen depends on the method and setting. In cells and extracts the contact can be indirect. Here binding means that the protein was enriched with, or labelled near, the bait; the list need not be complete. Tags and fused reporters may be left off the sequences shown.
